Not every detail of the peptide structures is certain; ends, links or a residue may be inferred. Some results were stated once for a whole list of compounds, not compound by compound. Bridge positions count the residues as written; N and C are the ends. Square brackets hold non-standard residues; d marks the D form. Peptide text beside a SMILES is read from it. * marks the point of attachment. X1 = O=C(O)CN1CCN(CC(=O)O)CCN(CC(=O)NCCN2C(=O)CC(*)C2=O)CCN(CC(=O)O)CC1; Ahx = NCCCCCC(=O)O
Target: T1, GLP-1R in pancreas (Mus musculus, UniProt O35659)
T1 sequence (O35659 22-463): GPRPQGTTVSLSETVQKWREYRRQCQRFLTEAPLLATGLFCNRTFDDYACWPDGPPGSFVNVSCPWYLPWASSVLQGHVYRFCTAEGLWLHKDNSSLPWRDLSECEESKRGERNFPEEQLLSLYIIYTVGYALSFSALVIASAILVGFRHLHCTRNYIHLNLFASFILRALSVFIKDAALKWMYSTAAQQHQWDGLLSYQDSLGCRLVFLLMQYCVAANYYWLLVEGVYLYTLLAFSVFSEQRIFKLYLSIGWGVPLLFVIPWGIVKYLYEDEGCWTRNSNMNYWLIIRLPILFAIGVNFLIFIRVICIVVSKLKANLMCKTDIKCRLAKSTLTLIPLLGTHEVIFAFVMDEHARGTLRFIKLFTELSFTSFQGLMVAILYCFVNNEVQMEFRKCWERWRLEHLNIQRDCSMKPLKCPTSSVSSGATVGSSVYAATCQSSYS
Assay: Dynamic PET/CT imaging of ^64Cu-labeled peptides in normal mice
Description: Dynamic PET/CT scans were performed on a Siemens Inveon PET-CT multimodality system using normal male BABL/c mice (n=3 per peptide). Post-PET biodistribution was performed to verify the imaging findings.
In addition, D-Ala^8 was also introduced to prevent the degradation by DPP-IV.
FIG. 9 are graphs that show a comparison of contrast in pancreatic, liver and kidney microPET scans. […] Quantitative analysis based on microPET/CT 0-60 min dynamic scans, animal model: Normal BABL/c mice at 6-8 wks.

Compound | clearance from the pancreas (^64Cu labeled, normal mice, dynamic PET-CT) | GLP-1R binding specificity (blocking imaging study, co-injected exendin-4 (100 μg/mouse))
CC[C@H](C)[C@H](NC(=O)[C@H](Cc1ccccc1)NC(=O)[C@H](CCC(=O)O)NC(=O)[C@H](CCCCN)NC(=O)[C@H](C)NC(=O)[C@H](C)NC(=O)[C@H](CCC(N)=O)NC(=O)CNC(=O)[C@H](CCC(=O)O)NC(=O)[C@@H]1CCCCNC(=O)CC[C@H](NC(=O)[C@H](CC(=O)O)NC(=O)[C@H](CO)NC(=O)[C@@H](NC(=O)[C@H](Cc2ccccc2)NC(=O)[C@@H](NC(=O)CNC(=O)[C@H](CCC(=O)O)NC(=O)[C@@H](C)NC(=O)[C@@H](N)Cc2c[nH]cn2)[C@@H](C)O)[C@@H](C)O)C(=O)N[C@@H](CO)C(=O)N[C@@H](CO)C(=O)N[C@@H](Cc2ccc(O)cc2)C(=O)N1)C(=O)N[C@H]1CCC(=O)NCCCC[C@@H](C(=O)NCC(=O)N[C@@H](CCCNC(=N)N)C(=O)NCCCCCC(=O)N[C@@H](CSC2CC(=O)N(CCNC(=O)CN3CCN(CC(=O)O)CCN(CC(=O)O)CCN(CC(=O)O)CC3)C2=O)C(N)=O)NC(=O)[C@H](C(C)C)NC(=O)[C@H](CC(C)C)NC(=O)[C@H](Cc2c[nH]c3ccccc23)NC1=O (stereo partly drawn) [EM2196, HXEGTFTSDESSYKEGQAAKEFIEWLVKG R, wherein X is D-Ala] (H-H[dA]EGTFTSDESSYKEGQAAKEFIEWLVKGR[Ahx]C(X1)-NH2; lactam 10-14, 24-28) | < 10 min | –
CC[C@H](C)[C@H](NC(=O)[C@H](Cc1ccccc1)NC(=O)[C@H](CCC(=O)O)NC(=O)[C@H](CCCCN)NC(=O)[C@H](C)NC(=O)[C@H](C)NC(=O)[C@H](CCC(N)=O)NC(=O)[C@@H]1CCCCNC(=O)CC[C@H](NC(=O)[C@H](CO)NC(=O)[C@@H](NC(=O)[C@H](CC(=O)O)NC(=O)[C@H](CO)NC(=O)[C@@H](NC(=O)[C@H](Cc2ccccc2)NC(=O)[C@@H](NC(=O)CNC(=O)[C@H](CCC(=O)O)NC(=O)[C@@H](C)NC(=O)[C@@H](N)Cc2c[nH]cn2)[C@@H](C)O)[C@@H](C)O)C(C)C)C(=O)N[C@@H](Cc2ccc(O)cc2)C(=O)N[C@@H](CC(C)C)C(=O)N[C@@H](CCC(=O)O)C(=O)N1)C(=O)N[C@H]1CCC(=O)NCCCC[C@@H](C(=O)NCC(=O)N[C@@H](CCCNC(=N)N)C(=O)NCCCCCC(=O)N[C@@H](CSC2CC(=O)N(CCNC(=O)CN3CCN(CC(=O)O)CCN(CC(=O)O)CCN(CC(=O)O)CC3)C2=O)C(N)=O)NC(=O)[C@H](C(C)C)NC(=O)[C@H](CC(C)C)NC(=O)[C@H](Cc2c[nH]c3ccccc23)NC1=O (stereo partly drawn) [EM2198, HXEGTFTSDVSEYLEKQAAKEFIEWLVKGR, wherein X is D-Ala] | – | GLP-1R binding specificity was confirmed

From patent publication US8992886B2, “Cyclic peptide analogues for non-invasive imaging of pancreatic beta-cells” (Board of Regents, the University of Texas System, priority 2009, dated 2015)
